Values from PubChem BioAssay AID686937 (Drosophila RNAi Screening Center, 2013)
Screen: 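Genes whose loss weakens secretory pathway function in fly cells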 (primary screen). Cell system: Drosophila S2 cells expressing secreted horseradish peroxidase. Knock-down reagent: long dsRNA against Drosophila genes. Timing: about 5.5 days (5 days dsRNA, then 12 h reporter induction). Conditions: reporter expression induced after 5 days of dsRNA, read 12 h later; inducer not stated. Read-out: 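After 5 days of dsRNA and 12 h of reporter induction, medium peroxidase read by chemiluminescence and scored as per-plate z-score; higher values mean more reporter released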. Scale: z-score: higher = more reporter secreted into medium.
The screen tested about 23,000 reagents; shown is a random part of those with a known target gene and a result. 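Reduced-secretion tags in replicate 1 do not always agree with the z-scores; no criterion for assigning the tags was given.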 Reagents against one gene are numbered here. A plus sign joins genes that one reagent is predicted to hit. Reagent sequences are not shown. Not stated in the record: the amount of reagent.

| Gene | dsRNA no. | z-score, replicate 1 | z-score, replicate 2 | z-score, replicate 3 | z-score, replicate 4 | phenotype, replicate 1 |
| --- | --- | --- | --- | --- | --- | --- |
| Mst84Dd | 1 | 0.22 | 0.61 | – | – | – |
| CG4815 | 1 | 0.33 | 0.48 | – | – | – |
| CG7512 | 1 | 0.32 | 0.14 | – | – | – |
| CR15280 | 1 | 0 | 0.22 | – | – | – |
| alc | 1 | 0.09 | 0.23 | – | – | – |
| alc | 2 | 1.38 | 0.79 | – | – | – |
| CG14223 | 1 | 0.34 | 0.35 | – | – | – |
| CG9483 | 1 | 0 | 0.36 | – | – | – |
| Sobp | 1 | 0.67 | 0.34 | – | – | – |
| CG13000 | 1 | -0.79 | -1.26 | – | – | – |
| IP3K1 | 1 | 0.29 | 0.38 | – | – | – |
| CG7432 | 1 | 0.4 | 0.51 | – | – | – |
| Elovl7 | 1 | 0.37 | 0.08 | – | – | – |
| Elovl7 | 2 | -0.53 | 0.77 | – | – | – |
| Nadk1b | 1 | 0.57 | 0.07 | – | – | – |
| Nadk1b | 2 | 0.35 | 0.12 | – | – | – |
| Nadk1b | 3 | 0.18 | 0.22 | – | – | – |
| Gagr | 1 | 0.08 | 0.3 | – | – | – |
| CG1812 | 1 | 0.42 | 0.54 | – | – | – |
| KCNQ | 1 | 0.07 | 0.21 | – | – | – |
| KCNQ | 2 | 0.12 | 0.23 | – | – | – |
| sn | 1 | 0.35 | 0.73 | – | – | – |
| GstD4 | 1 | -0.19 | 0.2 | – | – | – |
| CG4465 | 1 | 0.37 | 0.48 | – | – | – |
| CG7156 | 1 | 0.3 | 0.29 | – | – | – |
| Ptip | 1 | 0.12 | 0.34 | – | – | – |
| Ptip | 2 | -0.64 | -0.35 | – | – | – |
| Wdr92 | 1 | 0.19 | 0.16 | – | – | – |
| CG13337 | 1 | 0.36 | 0.24 | – | – | – |
| mRpS26 | 1 | 0.32 | 0.16 | – | – | – |
| CG30377 | 1 | 0.4 | 0.26 | – | – | – |
| CG30377 | 2 | 0.42 | 0.19 | – | – | – |
| CecB | 1 | 0.69 | 0.67 | – | – | – |
| CG31436 | 1 | 0.23 | 0.25 | – | – | – |
| CG33770 | 1 | 0.01 | 0.42 | – | – | – |
| Bulli | 1 | 0.24 | 0.18 | – | – | – |
| Ref1 | 1 | -1.39 | 0.18 | 0.21 | -0.31 | – |
| Ref1 | 2 | 1.52 | 2.7 | – | – | – |
| CG12713 | 1 | 0.15 | 0.23 | – | – | – |
| CG9205 | 1 | 0.36 | 0.35 | – | – | – |
| CG8858 | 1 | 0.46 | 0.18 | – | – | – |
| red | 1 | -1 | -0.42 | – | – | – |
| angel | 1 | 0.15 | 0.16 | – | – | – |
| angel | 2 | 1.54 | 1.43 | – | – | – |
| Acp33A + CG15841 (retired record) | 1 | 0.24 | 0.05 | – | – | – |
| CG5612 | 1 | 0.65 | 0.67 | – | – | – |
| CG11638 | 1 | 0.45 | 0.44 | – | – | – |
| CG11638 | 2 | 0.34 | 0.39 | – | – | – |
| CG14174 | 1 | 0.17 | 0.17 | – | – | – |
| sun | 1 | -0.11 | -0.26 | – | – | – |
| CG33771 | 1 | -0.65 | 0.02 | – | – | – |
| CG8248 | 1 | 0.3 | 0.27 | – | – | – |
| mus81 | 1 | 0.4 | 0.27 | – | – | – |
| mus81 | 2 | 0.21 | -5.27 | – | – | – |
| Cyp12a5 | 1 | 0.22 | 0.32 | – | – | – |
| Jon25Bii | 1 | -0.03 | 0.39 | – | – | – |
| CG13365 | 1 | 0.33 | 0.13 | – | – | – |
| CG31697 | 1 | -0.01 | 0.09 | – | – | – |
| CG6282 | 1 | 0.22 | 0.09 | – | – | – |
| CG6678 | 1 | 0.23 | 0.35 | – | – | – |
| OdsH | 1 | 0.69 | 0.64 | – | – | – |
| Sf3b1 | 1 | -4.97 | -4.94 | – | – | reduced secretion |
| CG13471 | 1 | -0.07 | 0.01 | – | – | – |
| Ugt37D1 | 1 | 0.17 | 0.14 | – | – | – |
| CG12091 | 1 | 0.4 | 0.44 | – | – | – |
| Cln3 | 1 | 0.47 | 0.27 | – | – | – |
| CG9568 | 1 | -0.3 | 0.48 | 0.26 | 0.08 | – |
| SPR | 1 | 0.32 | 0.44 | – | – | – |
| SPR | 2 | 0.59 | 0.3 | – | – | – |
| SPR | 3 | 0.56 | 0.34 | – | – | – |
| SPR | 4 | 0.02 | -0.52 | – | – | – |
| Hap40 | 1 | 0.25 | 0.38 | – | – | – |
| Arp8 | 1 | 0.36 | 0.46 | – | – | – |
| kumpel | 1 | 0.49 | 0.23 | – | – | – |
| kumpel | 2 | 0.37 | 0.45 | – | – | – |
| kumpel | 3 | 0.15 | 0.44 | – | – | – |
| kumpel | 4 | 0.57 | 0.28 | – | – | – |
| kumpel | 5 | 0.32 | 0.34 | – | – | – |
| kumpel | 6 | 0.32 | 0.39 | – | – | – |
| beat-IIa | 1 | 0.13 | 0.43 | – | – | – |
| beat-IIa | 2 | 0.27 | 0.3 | – | – | – |
| Set8 | 1 | -0.22 | -0.19 | – | – | – |
